In patent US10695396B2, “Malignant tumor target peptide” (NATIONAL INSTITUTE OF ADVANCED INDUSTRIAL SCIENCE AND …, priority 2016, dated 2020):
Not every detail of the peptide structures is certain; ends, links or a residue may be inferred. Some entries repeat one wording, which the source may state once for all of them. Square brackets hold non-standard residues; d marks the D form. Peptide text beside a SMILES is read from it.

Assays:
[1] = tested on: mouse vascular endothelial F2 cells; assay: transcytosis of IF7 in mouse vascular endothelial F2 cells; format: cell-based; conditions: IF7 bound to Anxa1, F2 cells
[2] = tested on: tumor vascular endothelial cells; assay: IF7 intravenously administered to tumor-bearing mouse, transport across tumor vascular endothelium; format: in vivo; conditions: intravenous administration
[3] = tested on: brain tumor (rat glioma C6-Luc transplanted into the brain); assay: IRDye-labeled peptide injected intravenously into brain tumor model nude mouse, in vivo fluorescence imaging (IVIS); conditions: tail vein / intravenous injection, imaging after 24 hr

Compound	transcytosis across vascular endothelial cells [1]	crossing of blood vessel to cancer cells in the stroma [2]	accumulation of IRDye fluorescence at the brain tumor site (brain tumor targeting ability) [3]
CC[C@H](C)[C@H](N)C(=O)N[C@@H](Cc1ccccc1)C(=O)N[C@@H](CC(C)C)C(=O)N[C@@H](CC(C)C)C(=O)N[C@@H](Cc1c[nH]c2ccccc12)C(=O)N[C@@H](CCC(N)=O)C(=O)N[C@@H](CCCNC(=N)N)C(=O)O [IF7, IFLLWQR] (H-IFLLWQR-OH; N-terminus and C-terminus assumed)	actively transected tumor vascular endothelial cells by transcytosis	released to the stroma where cancer cells were present	–
CC(C)C[C@@H](N)C(=O)N[C@H](CC(C)C)C(=O)N[C@H](CO)C(=O)N[C@H](Cc1c[nH]c2ccccc12)C(=O)N1CCC[C@@H]1C(=O)N[C@H](CO)C(=O)N[C@H](C)C(=O)O [dLLS7, L[D] L[D] S[D] W[D] P[D] S[D] A[D]] (H-[dL][dL][dS][dW][dP][dS][dA]-OH; N-terminus and C-terminus assumed)	–	–	all mice except those injected with dLLS7 showed a strong signal
CC(C)C[C@@H](N)C(=O)N[C@H](CCCNC(=N)N)C(=O)N[C@H](Cc1ccccc1)C(=O)N1CCC[C@@H]1C(=O)N[C@@H](C(=O)N[C@@H](C(=O)N[C@H](CC(C)C)C(=O)O)C(C)C)[C@H](C)O [dLRF7, L[D] R[D] F[D] P[D] T[D] V[D] L[D]] (H-[dL][dR][dF][dP][dT][dV][dL]-OH; N-terminus and C-terminus assumed)	–	–	showed a brain tumor targeting ability via the vasculature pathway
CSCC[C@@H](N)C(=O)N1CCC[C@@H]1C(=O)N[C@@H](C(=O)N[C@H](CC(C)C)C(=O)N[C@@H](C(=O)N[C@H](Cc1ccccc1)C(=O)N[C@H](CCCNC(=N)N)C(=O)O)[C@H](C)O)[C@H](C)O [dMPT7, M[D] P[D] T[D] L[D] T[D] F[D] R[D]] (H-[dM][dP][dT][dL][dT][dF][dR]-OH; N-terminus and C-terminus assumed)	–	–	showed a brain tumor targeting ability via the vasculature pathway
CC(C)C[C@@H](NC(=O)[C@@H](CC(C)C)NC(=O)[C@@H](CO)NC(=O)[C@H](NC(=O)[C@H]1CCCN1C(=O)[C@H](N)CO)[C@H](C)O)C(=O)N[C@H](Cc1ccccc1)C(=O)O [dSPT7, S[D] P[D] T[D] S[D] L[D] L[D] F[D]] (H-[dS][dP][dT][dS][dL][dL][dF]-OH; N-terminus and C-terminus assumed)	–	–	showed a brain tumor targeting ability via the vasculature pathway
